Measurements as given in patent US20160362464A1.
No constants are given. Whether binding was seen depends on the method and setting. Binding seen in cells or lysates may run through a third protein. Some binding calls cover weakened binding; strength is not graded here. Where a sequence is shown, tags or fusion partners need not be part of it.

Sequences of proteins named here, by UniProt entry; tags and fusion partners are left off.
UniProt P08753: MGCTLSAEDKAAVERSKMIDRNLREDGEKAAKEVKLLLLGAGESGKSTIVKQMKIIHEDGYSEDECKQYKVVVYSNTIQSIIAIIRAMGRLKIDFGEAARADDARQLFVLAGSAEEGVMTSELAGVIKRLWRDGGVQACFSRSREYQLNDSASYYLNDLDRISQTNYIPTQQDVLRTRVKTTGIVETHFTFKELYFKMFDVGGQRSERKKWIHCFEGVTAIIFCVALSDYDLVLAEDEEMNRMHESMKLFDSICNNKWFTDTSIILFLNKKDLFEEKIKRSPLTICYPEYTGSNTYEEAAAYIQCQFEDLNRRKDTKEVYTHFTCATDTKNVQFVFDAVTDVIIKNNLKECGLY
UniProt P10824: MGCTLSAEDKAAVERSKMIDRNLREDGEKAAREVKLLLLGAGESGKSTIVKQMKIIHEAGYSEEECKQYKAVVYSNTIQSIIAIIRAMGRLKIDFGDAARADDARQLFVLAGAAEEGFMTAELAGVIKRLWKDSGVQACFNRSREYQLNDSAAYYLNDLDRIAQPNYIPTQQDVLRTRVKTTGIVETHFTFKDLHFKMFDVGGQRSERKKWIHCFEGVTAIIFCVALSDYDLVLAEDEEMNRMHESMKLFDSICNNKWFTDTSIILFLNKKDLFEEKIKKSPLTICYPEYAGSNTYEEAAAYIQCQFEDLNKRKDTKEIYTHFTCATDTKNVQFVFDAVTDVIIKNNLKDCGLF
UniProt P04897: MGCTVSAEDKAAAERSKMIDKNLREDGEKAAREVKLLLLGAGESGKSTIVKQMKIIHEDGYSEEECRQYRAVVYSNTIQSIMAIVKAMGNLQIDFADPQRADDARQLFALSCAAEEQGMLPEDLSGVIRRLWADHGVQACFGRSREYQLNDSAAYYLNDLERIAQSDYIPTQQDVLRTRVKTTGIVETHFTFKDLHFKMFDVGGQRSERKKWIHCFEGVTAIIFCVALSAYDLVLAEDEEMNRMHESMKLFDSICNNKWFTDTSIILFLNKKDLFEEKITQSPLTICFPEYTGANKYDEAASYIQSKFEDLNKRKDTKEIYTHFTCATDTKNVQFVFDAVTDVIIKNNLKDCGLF

What was measured:
[1] = molecular target: GST-Gαi3 preloaded with GDP (inactive) (rat) (UniProt P08753); assay: GST-Gαi3 (GDP) pulldown from Cos7 lysates (FIG. 18E); the WT binds
GST-Gαi1 (rat) = GST-Gαi1 (rat) (UniProt P10824); assay: GST pulldown, purified proteins (FIG. 1G)
GST-Gαi2 (rat) = GST-Gαi2 (rat) (UniProt P04897); assay: GST pulldown, purified proteins (FIG. 1G)
[2] = molecular target: GST-Gαi3 preloaded with GDP (inactive) (rat) (UniProt P08753); assay: competition in GST pulldown, His-GIV-CT varied, His-DAPLE-CT fixed (FIG. 10B)

B1: myc-DAPLE-V2 WT (protein, not shown: small tags and cut ends)
chain: MSVLSPGDLKPKRGSPHRGSLDRTDASTDLAMRSWPSELGSRTCSTSATTTAPSNSTPIARHPGRTKGYNSDDNLCEPSLEFEVPNHRQYVSRPSSLESSRNTSSNSSPLNLKGSSEQLHGRSESFSSEDLIPSRDLATLPREASTPGRNALGRHEYPLPRNGPLPQEGAQKRGTAPPYVGVRPCSASPSSEMVTLEEFLEESNRSSPTHDTPSCRDDLLSDYFRKASDPPAIGGQPGPPAKKEGAKMPTNFVAPTVKMAAPTSEGRPLKPGQYVKPNFRLTEAEAPPSVAPRQAQPPQSLSLGRPRQAPVPPASHAPASRSASLSRAFSLASADLLRASGPEACKQESPQKLGAPEALGGRETGSHTLQSPAPPSSHSLARERTPLVGKAGSSCQGPGPRSRPLDTRRFSLAPPKEERLAPLHQSATAPAIATAGAGAAAAGSGSNSQLLHFSPAAAPAARTKPKAPPRSGEVATITPVRAGLSLSEGDGVPGQGCSEGLPAKSPGRSPDLAPHLGRALEDCSRGSVSKSSPASPEPGGDPQTVWYEYGCV
B1 was tested. Which binding [1] did it give?
Its binding is “binds”.

B2: His-DAPLE-CT (aa 1650-2028) (protein, not shown: small tags and cut ends)
chain: GTAPPYVGVRPCSASPSSEMVTLEEFLEESNRSSPTHDTPSCRDDLLSDYFRKASDPPAIGGQPGPPAKKEGAKMPTNFVAPTVKMAAPTSEGRPLKPGQYVKPNFRLTEAEAPPSVAPRQAQPPQSLSLGRPRQAPVPPASHAPASRSASLSRAFSLASADLLRASGPEACKQESPQKLGAPEALGGRETGSHTLQSPAPPSSHSLARERTPLVGKAGSSCQGPGPRSRPLDTRRFSLAPPKEERLAPLHQSATAPAIATAGAGAAAAGSGSNSQLLHFSPAAAPAARTKPKAPPRSGEVATITPVRAGLSLSEGDGVPGQGCSEGLPAKSPGRSPDLAPHLGRALEDCSRGSVSKSSPASPEPGGDPQTVWYEYGCV
What does the source list for B2?
binding (GST-Gαi1 (rat)): binds; binding (GST-Gαi2 (rat)): binds

B3: His-GIV-CT (aa 1660-1870) (protein, UniProt Q3V6T2 1660-1870, looked up, not shown: small tags and cut ends)
chain: ISETLESRHHKIKTGSPGSEVVTLQQFLEESNKLTSVQIKSSSQENLLDEVMKSLSVSSDFLGKDKPVSCGLARSVSGKTPGDFYDRRTTKPEFLRPGPRKTEDTYFISSAGKPTPGTQGKIKLVKESSLSRQSKDSNPYATLPRASSVISTAEGTTRRTSIHDFLTKDSRLPISVDSPPAAADSNTTAASNVDKVQESRNSKSRSREQQS
With B3 as the binder, how does the binding [2] read?
The binding was “binds”.
